PubChem BioAssay AID1259267 – Sanger Institute – 2017
Here is an unselected part of 794 reagents. 9 of them (1.1%) were called active. 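Viability capped at 1; calls reflect loss of viability from knock-down alone, not synergy with drugs.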 No sequences are given here. Not given: the amount of reagent, the time to read-out.

Test: 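Kinase and colorectal-mutated gene knock-downs lethal to GP5D cells alone or with drugs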 (primary screen)
Cell system: human GP5D colorectal cancer cells
Knock-down reagent: siRNA pool against human genes
Challenge: anchor drugs at low dose: BYL719 1 µM, cetuximab 5 µg/ml, trametinib 10 nM, or DMSO vehicle
Detection: 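Mean replicate viability versus non-targeting pool, given as knock-down-alone robust z-score, DMSO fraction, and synergy with low-dose BYL719, cetuximab or trametinib (1 µM, 5 µg/ml, 10 nM)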
Reading the numbers: robust z-score, knock-down alone and viability with DMSO: higher = more viable cells; synergy score with trametinib and synergy score with BYL719 and synergy score with cetuximab: higher = stronger synthetic lethal synergy with drug
Active means: 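a robust z-score below -3 for the knock-down by itself makes a gene active, i.e. essential alone; synergy scores are ignored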
Meaning of the calls: active = essential alone; inactive = not essential

| Target gene | robust z-score, knock-down alone | viability with DMSO (fraction of control) | synergy score with trametinib | synergy score with BYL719 | synergy score with cetuximab | activity call |
| --- | --- | --- | --- | --- | --- | --- |
| STK32A | 0.817 | 1 | -0.197 | -0.168 | -0.142 | inactive |
| CDKN1B | 0.777 | 0.992 | -0.0585 | -0.00126 | 0.0222 | inactive |
| MPP1 | 0.817 | 1 | 0.16 | -0.146 | -0.142 | inactive |
| ULK4 | 0.0934 | 0.847 | 0.224 | 0.0483 | 0.129 | inactive |
| DGUOK | 0.408 | 0.913 | -0.0679 | -0.0257 | -0.174 | inactive |
| CDADC1 | -0.464 | 0.729 | -0.119 | -0.169 | -0.0308 | inactive |
| RPS6KA5 | -1.17 | 0.579 | -0.0411 | -0.109 | -0.251 | inactive |
| CAMK2N1 | -3.38 | 0.11 | -0.0984 | -0.41 | -0.0886 | active |
| CDKL1 | -0.632 | 0.693 | -0.165 | -0.0721 | -0.174 | inactive |
| FES | -0.983 | 0.619 | -0.112 | -0.182 | -0.0191 | inactive |
| MAPK4 | 0.817 | 1 | 0.376 | 0.0877 | 0.0859 | inactive |
| KSR1 | -0.116 | 0.802 | 0.403 | 0.185 | 0.0672 | inactive |
| CSNK1G3 | 0.612 | 0.957 | 0.0727 | 0.0506 | -0.022 | inactive |
| PHKG2 | 0.00901 | 0.829 | -0.178 | -0.189 | 0.054 | inactive |
| NRK | 0.817 | 1 | -0.197 | -0.205 | -0.142 | inactive |
| HK2 | -0.405 | 0.741 | 0.197 | -0.0247 | 0.131 | inactive |
| PNCK | 0.249 | 0.88 | -0.145 | -0.188 | -0.119 | inactive |
| CAD | 0.817 | 1 | -0.197 | -0.361 | -0.142 | inactive |
| PKIB | 0.817 | 1 | -0.115 | -0.202 | -0.142 | inactive |
| PTEN | -1.65 | 0.478 | -0.246 | -0.355 | -0.0339 | inactive |

3 entries from above, reduced to “viability with DMSO (fraction of control)”:
CDKL1	0.693
FES	0.619
MAPK4	1
